From paper PMC6345565
No constants are given. Whether binding was seen depends on the method and setting.

Amino acid sequences for entries named in this document (tags omitted). A change or cut given only in a name is not applied to a line headed by its entry.
UniProt Q9EP80: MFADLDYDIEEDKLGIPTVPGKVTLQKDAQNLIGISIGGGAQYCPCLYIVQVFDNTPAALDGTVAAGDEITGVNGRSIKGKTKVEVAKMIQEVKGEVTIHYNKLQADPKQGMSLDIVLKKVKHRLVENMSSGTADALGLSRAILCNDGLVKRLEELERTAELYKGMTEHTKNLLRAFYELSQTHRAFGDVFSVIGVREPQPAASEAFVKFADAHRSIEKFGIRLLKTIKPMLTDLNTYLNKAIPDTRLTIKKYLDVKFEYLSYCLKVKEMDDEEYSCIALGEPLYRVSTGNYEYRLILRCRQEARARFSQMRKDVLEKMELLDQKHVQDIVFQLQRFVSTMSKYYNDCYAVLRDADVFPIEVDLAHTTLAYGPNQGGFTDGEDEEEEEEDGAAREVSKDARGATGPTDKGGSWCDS

Molecular target: SNAP-PICK1 WT (PICK1 with an N-terminal SNAP-tag, fluorescently labelled) (rat (Rattus norvegicus)) (UniProt Q9EP80)
Experiment: condition: only without subunit exchange (0.01% TX-100); two-colour co-binding on supported cell membrane sheets without monomer exchange; PICK1 A87L/A87L and PICK1 WT/WT mixed under no-exchange conditions (0.01% TX-100); both purified

SNAP-PICK1 A87L (from UniProt Q9EP80 1-416)
binding: no binding
